Some of the results follow. Hit calls seldom repeat between salt and free forms of one compound.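 Kinases were expressed as nanoluciferase fusions in K562 cells and luminescence was read every 4 h between 2 and 18 h as percent of control, DMSO set to 100% and a positive control to 0%. A time point counts as decreased when the signal drops significantly (2 sigma). The hit call is the authors' own, does not follow from the count of time points alone, and its rule is not shown.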
Assays:
Experiment in all cases: kinase-Nluc reporter destabilization hit call (1 = scored as downregulated) (binary); higher = compound decreases kinase abundance
Conditions in all cases: K562, 2-18 h
PDPK1 = PDPK1 (UniProt O15530)
PIK4CA = PIK4CA (UniProt P42356)
PIK4CB = PIK4CB (UniProt Q9UBF8)
PLK1 = PLK1 (UniProt P53350)
PRKAA1 = PRKAA1 (UniProt Q13131)
PRKCA = PRKCA (UniProt P17252)
PTK2 = PTK2 (UniProt Q05397)
PTK2B = PTK2B (UniProt Q14289)
RAF1 = RAF1 (UniProt P04049)
[1] = molecular target: RAF1_S257L (clone: RAF1_mut) (UniProt P04049)

By UniProt entry, the sequences of proteins in these tests, tags left out. Where a name states a change or a piece, a line headed by the entry shows the natural chain unless it says otherwise.
UniProt O15530: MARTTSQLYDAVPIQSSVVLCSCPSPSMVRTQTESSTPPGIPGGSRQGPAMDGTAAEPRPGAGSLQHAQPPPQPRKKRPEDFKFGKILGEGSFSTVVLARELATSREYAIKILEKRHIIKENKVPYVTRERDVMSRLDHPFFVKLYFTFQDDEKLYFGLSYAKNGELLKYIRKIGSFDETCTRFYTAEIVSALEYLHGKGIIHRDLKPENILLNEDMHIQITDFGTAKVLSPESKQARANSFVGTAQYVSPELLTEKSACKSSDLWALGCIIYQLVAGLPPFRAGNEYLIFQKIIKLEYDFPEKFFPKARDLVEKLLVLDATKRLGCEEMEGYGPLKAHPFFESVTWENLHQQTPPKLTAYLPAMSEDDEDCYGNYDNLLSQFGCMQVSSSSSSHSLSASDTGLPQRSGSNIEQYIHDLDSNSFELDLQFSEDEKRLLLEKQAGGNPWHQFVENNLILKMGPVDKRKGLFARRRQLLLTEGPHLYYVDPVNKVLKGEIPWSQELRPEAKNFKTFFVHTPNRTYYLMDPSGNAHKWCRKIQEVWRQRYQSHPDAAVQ
UniProt P42356, whole entry, looked up: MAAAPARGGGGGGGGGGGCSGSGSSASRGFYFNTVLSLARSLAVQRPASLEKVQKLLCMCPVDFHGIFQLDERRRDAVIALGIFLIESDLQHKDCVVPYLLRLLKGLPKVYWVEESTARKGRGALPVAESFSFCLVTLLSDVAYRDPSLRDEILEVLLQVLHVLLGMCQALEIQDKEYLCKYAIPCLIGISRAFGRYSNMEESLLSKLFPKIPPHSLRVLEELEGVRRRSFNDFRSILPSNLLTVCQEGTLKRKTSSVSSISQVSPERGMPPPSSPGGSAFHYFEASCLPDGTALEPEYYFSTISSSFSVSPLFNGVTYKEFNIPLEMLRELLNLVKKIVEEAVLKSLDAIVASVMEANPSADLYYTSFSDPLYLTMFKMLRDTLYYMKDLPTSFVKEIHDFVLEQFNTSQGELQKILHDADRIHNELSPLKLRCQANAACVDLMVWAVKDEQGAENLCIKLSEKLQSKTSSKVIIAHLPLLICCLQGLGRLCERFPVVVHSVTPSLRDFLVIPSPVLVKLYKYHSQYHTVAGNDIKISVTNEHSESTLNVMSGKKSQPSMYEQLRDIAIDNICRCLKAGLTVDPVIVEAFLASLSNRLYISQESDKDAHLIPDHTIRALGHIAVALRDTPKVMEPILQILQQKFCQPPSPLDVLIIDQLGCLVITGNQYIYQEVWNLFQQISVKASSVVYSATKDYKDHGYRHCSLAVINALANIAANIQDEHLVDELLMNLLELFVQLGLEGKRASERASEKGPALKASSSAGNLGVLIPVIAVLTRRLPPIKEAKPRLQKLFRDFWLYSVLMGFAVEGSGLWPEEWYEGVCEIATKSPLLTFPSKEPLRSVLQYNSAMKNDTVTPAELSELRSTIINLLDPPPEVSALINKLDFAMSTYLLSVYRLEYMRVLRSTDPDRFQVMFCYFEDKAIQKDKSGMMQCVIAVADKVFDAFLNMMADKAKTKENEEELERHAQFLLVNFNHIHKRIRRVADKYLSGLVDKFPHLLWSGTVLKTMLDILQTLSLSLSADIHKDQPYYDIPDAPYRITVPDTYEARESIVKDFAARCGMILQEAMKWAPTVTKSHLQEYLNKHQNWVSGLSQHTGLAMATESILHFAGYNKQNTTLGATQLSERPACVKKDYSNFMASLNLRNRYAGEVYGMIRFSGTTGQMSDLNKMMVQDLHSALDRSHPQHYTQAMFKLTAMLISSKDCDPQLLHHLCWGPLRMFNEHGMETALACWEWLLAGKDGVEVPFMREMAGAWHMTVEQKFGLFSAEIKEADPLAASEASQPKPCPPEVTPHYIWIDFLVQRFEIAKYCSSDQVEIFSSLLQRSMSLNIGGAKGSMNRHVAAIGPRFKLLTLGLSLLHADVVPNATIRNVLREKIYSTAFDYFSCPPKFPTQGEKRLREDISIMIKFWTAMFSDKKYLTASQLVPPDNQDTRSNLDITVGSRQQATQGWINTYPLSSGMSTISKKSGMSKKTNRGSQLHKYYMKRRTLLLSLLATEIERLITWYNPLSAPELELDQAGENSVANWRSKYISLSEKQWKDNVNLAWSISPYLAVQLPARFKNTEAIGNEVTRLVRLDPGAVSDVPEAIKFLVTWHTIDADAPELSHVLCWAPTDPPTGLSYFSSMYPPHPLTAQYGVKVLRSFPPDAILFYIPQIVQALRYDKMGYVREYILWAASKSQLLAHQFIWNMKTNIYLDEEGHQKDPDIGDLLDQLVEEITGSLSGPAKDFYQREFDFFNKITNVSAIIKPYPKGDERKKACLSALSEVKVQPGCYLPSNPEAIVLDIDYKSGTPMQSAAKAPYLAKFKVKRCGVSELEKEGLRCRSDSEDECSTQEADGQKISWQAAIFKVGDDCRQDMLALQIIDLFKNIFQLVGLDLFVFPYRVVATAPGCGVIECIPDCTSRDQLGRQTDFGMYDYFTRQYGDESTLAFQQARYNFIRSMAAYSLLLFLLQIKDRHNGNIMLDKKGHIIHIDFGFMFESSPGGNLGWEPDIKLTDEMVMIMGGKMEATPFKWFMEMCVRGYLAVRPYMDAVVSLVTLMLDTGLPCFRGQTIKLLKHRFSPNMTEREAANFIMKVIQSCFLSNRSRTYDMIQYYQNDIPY
UniProt P53350, whole entry: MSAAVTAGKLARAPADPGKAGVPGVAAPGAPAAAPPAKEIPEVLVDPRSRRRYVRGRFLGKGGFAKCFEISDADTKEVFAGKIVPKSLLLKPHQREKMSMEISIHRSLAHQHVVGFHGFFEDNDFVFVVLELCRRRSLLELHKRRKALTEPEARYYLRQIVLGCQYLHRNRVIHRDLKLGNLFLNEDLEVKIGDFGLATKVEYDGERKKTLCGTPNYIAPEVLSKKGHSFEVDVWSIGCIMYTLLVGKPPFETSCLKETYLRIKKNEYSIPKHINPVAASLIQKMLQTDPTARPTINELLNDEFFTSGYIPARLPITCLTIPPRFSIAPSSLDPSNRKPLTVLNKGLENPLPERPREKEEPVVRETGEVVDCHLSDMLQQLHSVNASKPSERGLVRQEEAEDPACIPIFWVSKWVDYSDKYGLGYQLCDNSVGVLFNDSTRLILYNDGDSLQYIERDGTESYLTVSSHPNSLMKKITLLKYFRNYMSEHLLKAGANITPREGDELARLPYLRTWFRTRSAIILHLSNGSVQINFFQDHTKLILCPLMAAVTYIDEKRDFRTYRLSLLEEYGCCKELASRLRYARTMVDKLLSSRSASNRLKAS
UniProt Q13131: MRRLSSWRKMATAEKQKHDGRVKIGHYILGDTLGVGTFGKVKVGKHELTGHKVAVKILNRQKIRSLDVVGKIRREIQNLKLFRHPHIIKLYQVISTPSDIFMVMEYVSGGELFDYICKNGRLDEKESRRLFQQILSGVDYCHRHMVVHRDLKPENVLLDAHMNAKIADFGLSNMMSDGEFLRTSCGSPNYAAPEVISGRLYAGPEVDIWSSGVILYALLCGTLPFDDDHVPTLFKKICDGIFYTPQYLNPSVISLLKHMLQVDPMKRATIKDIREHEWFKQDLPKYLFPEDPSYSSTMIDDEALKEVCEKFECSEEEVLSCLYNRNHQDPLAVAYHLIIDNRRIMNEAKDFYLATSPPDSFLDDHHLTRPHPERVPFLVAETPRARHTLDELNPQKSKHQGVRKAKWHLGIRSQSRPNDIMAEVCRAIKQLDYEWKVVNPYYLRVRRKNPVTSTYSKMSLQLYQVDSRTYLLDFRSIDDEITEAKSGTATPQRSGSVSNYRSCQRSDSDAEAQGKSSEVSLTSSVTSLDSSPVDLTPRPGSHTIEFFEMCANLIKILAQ
UniProt Q05397, whole entry, looked up: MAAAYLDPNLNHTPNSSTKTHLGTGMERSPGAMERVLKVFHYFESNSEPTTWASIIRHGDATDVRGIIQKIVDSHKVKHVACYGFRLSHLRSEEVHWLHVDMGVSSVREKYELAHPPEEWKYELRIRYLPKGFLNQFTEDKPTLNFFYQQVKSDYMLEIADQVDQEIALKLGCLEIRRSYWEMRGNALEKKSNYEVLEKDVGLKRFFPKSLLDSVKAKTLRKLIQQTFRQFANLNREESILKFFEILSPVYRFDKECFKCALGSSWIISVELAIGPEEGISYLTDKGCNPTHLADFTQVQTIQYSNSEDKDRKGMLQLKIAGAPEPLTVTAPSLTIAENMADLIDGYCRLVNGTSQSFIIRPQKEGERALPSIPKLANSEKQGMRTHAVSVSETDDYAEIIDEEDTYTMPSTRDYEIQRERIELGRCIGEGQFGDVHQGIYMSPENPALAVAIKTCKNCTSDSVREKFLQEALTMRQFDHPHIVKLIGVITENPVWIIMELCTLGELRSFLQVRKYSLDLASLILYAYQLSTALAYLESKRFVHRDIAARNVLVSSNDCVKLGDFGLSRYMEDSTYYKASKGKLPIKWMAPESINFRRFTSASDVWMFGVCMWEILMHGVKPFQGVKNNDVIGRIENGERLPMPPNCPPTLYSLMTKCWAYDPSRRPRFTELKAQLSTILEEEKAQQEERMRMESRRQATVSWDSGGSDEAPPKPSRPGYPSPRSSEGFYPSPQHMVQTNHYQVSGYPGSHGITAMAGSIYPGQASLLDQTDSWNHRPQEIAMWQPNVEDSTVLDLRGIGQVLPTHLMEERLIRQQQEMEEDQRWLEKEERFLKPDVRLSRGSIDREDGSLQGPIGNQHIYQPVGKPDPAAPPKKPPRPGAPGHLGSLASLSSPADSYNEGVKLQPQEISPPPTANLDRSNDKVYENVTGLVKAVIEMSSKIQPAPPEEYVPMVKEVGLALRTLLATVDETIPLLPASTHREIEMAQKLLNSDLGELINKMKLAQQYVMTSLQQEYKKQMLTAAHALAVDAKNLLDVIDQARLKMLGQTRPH
UniProt Q14289, whole entry, looked up: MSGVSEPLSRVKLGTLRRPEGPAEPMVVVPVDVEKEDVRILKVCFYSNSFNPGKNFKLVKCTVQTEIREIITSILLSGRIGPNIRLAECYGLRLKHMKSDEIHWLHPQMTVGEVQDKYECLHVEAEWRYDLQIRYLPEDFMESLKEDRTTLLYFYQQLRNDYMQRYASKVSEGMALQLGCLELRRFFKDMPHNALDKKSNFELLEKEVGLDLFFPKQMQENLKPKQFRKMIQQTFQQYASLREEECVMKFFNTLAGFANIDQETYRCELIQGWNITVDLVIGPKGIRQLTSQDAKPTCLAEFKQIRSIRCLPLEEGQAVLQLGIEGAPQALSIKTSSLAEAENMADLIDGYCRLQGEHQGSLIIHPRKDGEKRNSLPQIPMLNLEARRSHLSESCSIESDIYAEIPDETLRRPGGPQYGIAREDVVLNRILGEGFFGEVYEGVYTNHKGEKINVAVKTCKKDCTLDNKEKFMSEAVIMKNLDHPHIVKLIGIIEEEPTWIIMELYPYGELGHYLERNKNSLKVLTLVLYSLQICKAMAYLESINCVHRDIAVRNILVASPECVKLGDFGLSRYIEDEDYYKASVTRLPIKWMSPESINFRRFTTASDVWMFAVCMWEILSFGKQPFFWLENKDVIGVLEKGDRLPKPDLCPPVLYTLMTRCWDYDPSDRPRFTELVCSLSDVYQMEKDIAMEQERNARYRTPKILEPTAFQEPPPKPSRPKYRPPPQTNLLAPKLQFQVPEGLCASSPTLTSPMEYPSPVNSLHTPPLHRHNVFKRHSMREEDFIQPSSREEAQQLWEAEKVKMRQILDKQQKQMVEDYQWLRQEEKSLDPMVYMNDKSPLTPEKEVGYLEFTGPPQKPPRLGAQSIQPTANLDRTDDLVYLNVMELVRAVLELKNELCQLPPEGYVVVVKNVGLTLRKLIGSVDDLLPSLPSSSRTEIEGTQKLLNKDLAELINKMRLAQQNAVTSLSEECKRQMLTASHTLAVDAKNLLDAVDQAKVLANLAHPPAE

Measured: kinase-Nluc reporter destabilization hit call

CN1CCN(c2nc(C3=C(c4c[nH]c5ccccc45)C(=O)NC3=O)c3ccccc3n2)CC1 [Sotrastaurin]
inactive: PDPK1; 2.5 µM 0 | PIK4CA; 2.5 µM 0 | PIK4CB; 2.5 µM 0 | PLK1; 2.5 µM 0 | PRKAA1; 2.5 µM 0 | PRKCA; 2.5 µM 0 | PTK2; 2.5 µM 0 | PTK2B; 2.5 µM 0 | RAF1; 2.5 µM 0 | [1]; 2.5 µM 0

CNC(=O)c1cc(Oc2ccc(NC(=O)Nc3ccc(Cl)c(C(F)(F)F)c3)cc2)ccn1 [Sorafenib]
inactive: PDPK1; 2.5 µM 0 | PIK4CA; 2.5 µM 0 | PIK4CB; 2.5 µM 0 | PLK1; 2.5 µM 0 | PRKAA1; 2.5 µM 0 | PRKCA; 2.5 µM 0 | PTK2; 2.5 µM 0 | PTK2B; 2.5 µM 0 | RAF1; 2.5 µM 0 | [1]; 2.5 µM 0

C=CC(=O)N1C[C@@H](Nc2ncnc3[nH]ccc23)CC[C@H]1C [(2R,5S)-Ritlecitinib]
inactive: PDPK1; 10 µM 0 | PIK4CA; 10 µM 0 | PIK4CB; 10 µM 0 | PLK1; 10 µM 0 | PRKAA1; 10 µM 0 | PRKCA; 10 µM 0 | PTK2; 10 µM 0 | PTK2B; 10 µM 0 | RAF1; 10 µM 0 | [1]; 10 µM 0

COc1ccc(-c2cc(C(=O)NN=C(C)c3ccc(OC)c(OC)c3)[nH]n2)cc1
inactive: PDPK1; 10 µM 0 | PIK4CA; 10 µM 0 | PIK4CB; 10 µM 0 | PLK1; 10 µM 0 | PRKAA1; 10 µM 0 | PRKCA; 10 µM 0 | PTK2; 10 µM 0 | PTK2B; 10 µM 0 | RAF1; 10 µM 0 | [1]; 10 µM 0

NCCNc1ncc(C(N)=O)c(Nc2cccc(C(F)(F)F)c2)n1 [Syk Inhibitor II]
inactive: PDPK1; 10 µM 0 | PIK4CA; 10 µM 0 | PIK4CB; 10 µM 0 | PLK1; 10 µM 0 | PRKAA1; 10 µM 0 | PRKCA; 10 µM 0 | PTK2; 10 µM 0 | PTK2B; 10 µM 0 | RAF1; 10 µM 0 | [1]; 10 µM 0

Part of the list above in order of number of heavy atoms, smallest number first.
COc1ccc(-c2cc(C(=O)NN=C(C)c3ccc(OC)c(OC)c3)[nH]n2)cc1
inactive: PDPK1; 10 µM 0 | PIK4CA; 10 µM 0 | PIK4CB; 10 µM 0 | PLK1; 10 µM 0 | PRKAA1; 10 µM 0 | PRKCA; 10 µM 0 | PTK2; 10 µM 0 | PTK2B; 10 µM 0 | RAF1; 10 µM 0 | [1]; 10 µM 0

CNC(=O)c1cc(Oc2ccc(NC(=O)Nc3ccc(Cl)c(C(F)(F)F)c3)cc2)ccn1 [Sorafenib]
inactive: PDPK1; 2.5 µM 0 | PIK4CA; 2.5 µM 0 | PIK4CB; 2.5 µM 0 | PLK1; 2.5 µM 0 | PRKAA1; 2.5 µM 0 | PRKCA; 2.5 µM 0 | PTK2; 2.5 µM 0 | PTK2B; 2.5 µM 0 | RAF1; 2.5 µM 0 | [1]; 2.5 µM 0

CN1CCN(c2nc(C3=C(c4c[nH]c5ccccc45)C(=O)NC3=O)c3ccccc3n2)CC1 [Sotrastaurin]
inactive: PDPK1; 2.5 µM 0 | PIK4CA; 2.5 µM 0 | PIK4CB; 2.5 µM 0 | PLK1; 2.5 µM 0 | PRKAA1; 2.5 µM 0 | PRKCA; 2.5 µM 0 | PTK2; 2.5 µM 0 | PTK2B; 2.5 µM 0 | RAF1; 2.5 µM 0 | [1]; 2.5 µM 0

More compounds:

COc1ccc(CNC(=O)Nc2ncc([N+](=O)[O-])s2)cc1
inactive: PDPK1; 2.5 µM 0 | PIK4CA; 2.5 µM 0 | PIK4CB; 2.5 µM 0 | PLK1; 2.5 µM 0 | PRKAA1; 2.5 µM 0 | PRKCA; 2.5 µM 0 | PTK2; 2.5 µM 0 | PTK2B; 2.5 µM 0 | RAF1; 2.5 µM 0 | [1]; 2.5 µM 0

C=CC(=O)N1CCC([C@@H]2CCNc3c(C(N)=O)c(-c4ccc(Oc5ccccc5)cc4)nn32)CC1 [Zanubrutinib]
inactive: PDPK1; 10 µM 0 | PIK4CA; 10 µM 0 | PIK4CB; 10 µM 0 | PLK1; 10 µM 0 | PRKAA1; 10 µM 0 | PRKCA; 10 µM 0 | PTK2; 10 µM 0 | PTK2B; 10 µM 0 | RAF1; 10 µM 0 | [1]; 10 µM 0

C=CC(=O)N(C)CCOc1c(N)ncnc1-c1cc(F)cc(NC(=O)c2ccc(C3CC3)cc2F)c1C [Remibrutinib]
inactive: PDPK1; 10 µM 0 | PIK4CA; 10 µM 0 | PIK4CB; 10 µM 0 | PLK1; 10 µM 0 | PRKAA1; 10 µM 0 | PRKCA; 10 µM 0 | PTK2; 10 µM 0 | PTK2B; 10 µM 0 | RAF1; 10 µM 0 | [1]; 10 µM 0

COc1cc(N2CCC(N3CCN(C)CC3)CC2)ccc1Nc1ncc(Cl)c(Nc2ccccc2S(=O)(=O)C(C)C)n1
inactive: PDPK1; 2.5 µM 0 | PIK4CA; 2.5 µM 0 | PIK4CB; 2.5 µM 0 | PLK1; 2.5 µM 0 | PRKAA1; 2.5 µM 0 | PRKCA; 2.5 µM 0 | PTK2; 2.5 µM 0 | PTK2B; 2.5 µM 0 | RAF1; 2.5 µM 0 | [1]; 2.5 µM 0

C[C@H]1Oc2cc(cnc2N)-c2c(nn(C)c2C#N)CN(C)C(=O)c2ccc(F)cc21 [Lorlatinib]
inactive: PDPK1; 10 µM 0 | PIK4CA; 10 µM 0 | PIK4CB; 10 µM 0 | PLK1; 10 µM 0 | PRKAA1; 10 µM 0 | PRKCA; 10 µM 0 | PTK2; 10 µM 0 | PTK2B; 10 µM 0 | RAF1; 10 µM 0 | [1]; 10 µM 0

O=C(c1ccc(/C=C/c2n[nH]c3ccccc23)cc1)N1CCNCC1
inactive: PDPK1; 2.5 µM 0 | PIK4CA; 2.5 µM 0 | PIK4CB; 2.5 µM 0 | PLK1; 2.5 µM 0 | PRKAA1; 2.5 µM 0 | PRKCA; 2.5 µM 0 | PTK2; 2.5 µM 0 | PTK2B; 2.5 µM 0 | RAF1; 2.5 µM 0 | [1]; 2.5 µM 0

C[C@H]1CN(C2COC2)CCN1c1ccc(Nc2cc(-c3ccnc(N4CCn5c(cc6c5CC(C)(C)C6)C4=O)c3CO)cn(C)c2=O)nc1 [Fenebrutinib]
inactive: PDPK1; 10 µM 0 | PIK4CA; 10 µM 0 | PIK4CB; 10 µM 0 | PLK1; 10 µM 0 | PRKAA1; 10 µM 0 | PRKCA; 10 µM 0 | PTK2; 10 µM 0 | PTK2B; 10 µM 0 | RAF1; 10 µM 0 | [1]; 10 µM 0

Cc1cn(-c2cc(NC(=O)c3ccc(C)c(Nc4nccc(-c5cccnc5)n4)c3)cc(C(F)(F)F)c2)cn1 [Nilotinib]
inactive: PDPK1; 2.5 µM 0 | PIK4CA; 2.5 µM 0 | PIK4CB; 2.5 µM 0 | PLK1; 2.5 µM 0 | PRKAA1; 2.5 µM 0 | PRKCA; 2.5 µM 0 | PTK2; 2.5 µM 0 | PTK2B; 2.5 µM 0 | RAF1; 2.5 µM 0 | [1]; 2.5 µM 0

Cc1cc(Nc2cc(N3CCN(C)CC3)nc(/C=C/c3ccccc3)n2)n[nH]1 [ENMD-2076 (Tartrate)]
inactive: PDPK1; 2.5 µM 0 | PIK4CA; 2.5 µM 0 | PIK4CB; 2.5 µM 0 | PLK1; 2.5 µM 0 | PRKAA1; 2.5 µM 0 | PRKCA; 2.5 µM 0 | PTK2B; 2.5 µM 0 | RAF1; 2.5 µM 0 | [1]; 2.5 µM 0

CC(C)[C@@](C)(O)[C@@H]1CN(c2nc(-c3[nH]nc4ncccc34)c(F)cc2Cl)CCN1
inactive: PDPK1; 10 µM 0 | PIK4CA; 10 µM 0 | PIK4CB; 10 µM 0 | PLK1; 10 µM 0 | PRKAA1; 10 µM 0 | PRKCA; 10 µM 0 | PTK2; 10 µM 0 | PTK2B; 10 µM 0 | RAF1; 10 µM 0 | [1]; 10 µM 0
